Some of the results follow.
compound: O=C(CCCCCCC(=O)Nc1ccccc1)NO [vorinostat]; experiment: log2 fold change, soluble protein after heating vs DMSO (PISA); higher = thermal stabilisation; K562 lysate, 10 uM; active = over 0.2 and 3.5 SD of the protein, either way, in both replicates (recomputed)
How it was run: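 K562 pellets were dounce-homogenised in PBS pH 7.4 with 1 mM MgCl2, and the crude extract at 1 mg/mL protein was treated with 10 μM compound for 30 min. Aliquots were heated for 3 min across 48°C-58°C, pooled, and brought to 0.5% NP-40 at 4°C; soluble protein was the supernatant after 21,000xg for 90 min. Soluble protein was quantified by TMTpro 16plex LC-MS/MS with channel sums equalised, and reported as log2 fold change in thermal stability against DMSO controls, with values from duplicates.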

By UniProt entry, the sequences of proteins in these tests, tags left out. Where a name states a change or a piece, a line headed by the entry shows the natural chain unless it says otherwise.
UniProt O43913: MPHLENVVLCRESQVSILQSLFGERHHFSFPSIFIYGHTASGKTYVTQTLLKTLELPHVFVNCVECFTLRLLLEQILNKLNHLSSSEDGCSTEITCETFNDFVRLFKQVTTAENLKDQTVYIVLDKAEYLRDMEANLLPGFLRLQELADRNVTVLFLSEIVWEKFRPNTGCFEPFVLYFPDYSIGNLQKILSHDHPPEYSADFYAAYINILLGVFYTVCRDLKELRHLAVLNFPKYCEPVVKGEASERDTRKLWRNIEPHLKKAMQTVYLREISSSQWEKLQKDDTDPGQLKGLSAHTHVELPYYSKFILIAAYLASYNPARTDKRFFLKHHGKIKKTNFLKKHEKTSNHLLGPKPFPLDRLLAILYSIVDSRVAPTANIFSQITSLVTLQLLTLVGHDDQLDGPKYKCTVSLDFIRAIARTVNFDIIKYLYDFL
UniProt O75459: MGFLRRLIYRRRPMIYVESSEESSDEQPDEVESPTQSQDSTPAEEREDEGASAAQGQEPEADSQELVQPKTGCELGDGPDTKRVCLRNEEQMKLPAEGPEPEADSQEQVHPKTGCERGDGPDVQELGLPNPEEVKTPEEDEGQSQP
UniProt Q9BPZ3: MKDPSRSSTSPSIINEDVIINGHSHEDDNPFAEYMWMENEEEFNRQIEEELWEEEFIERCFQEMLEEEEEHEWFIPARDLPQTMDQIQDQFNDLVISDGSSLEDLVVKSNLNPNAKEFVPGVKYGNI
UniProt Q9UBU9: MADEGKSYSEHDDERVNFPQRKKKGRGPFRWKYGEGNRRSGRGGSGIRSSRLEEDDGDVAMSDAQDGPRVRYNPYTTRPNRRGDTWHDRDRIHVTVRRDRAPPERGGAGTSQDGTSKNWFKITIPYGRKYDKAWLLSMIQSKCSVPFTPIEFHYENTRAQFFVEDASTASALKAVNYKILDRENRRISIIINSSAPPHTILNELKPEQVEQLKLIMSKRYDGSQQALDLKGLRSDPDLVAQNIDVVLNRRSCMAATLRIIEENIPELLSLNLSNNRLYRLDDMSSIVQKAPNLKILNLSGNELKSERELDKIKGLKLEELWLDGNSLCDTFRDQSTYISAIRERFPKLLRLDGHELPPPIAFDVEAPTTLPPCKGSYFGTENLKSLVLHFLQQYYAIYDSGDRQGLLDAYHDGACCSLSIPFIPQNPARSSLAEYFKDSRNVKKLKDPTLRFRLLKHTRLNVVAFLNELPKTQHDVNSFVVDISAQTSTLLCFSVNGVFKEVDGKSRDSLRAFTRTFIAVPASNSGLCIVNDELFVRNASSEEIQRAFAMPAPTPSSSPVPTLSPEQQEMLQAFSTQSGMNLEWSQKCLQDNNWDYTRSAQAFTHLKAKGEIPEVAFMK
UniProt Q96GU1: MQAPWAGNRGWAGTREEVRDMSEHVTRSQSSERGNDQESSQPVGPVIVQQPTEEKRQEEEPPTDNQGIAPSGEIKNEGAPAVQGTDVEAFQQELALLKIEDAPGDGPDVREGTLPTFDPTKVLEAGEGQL
UniProt Q9NRP0: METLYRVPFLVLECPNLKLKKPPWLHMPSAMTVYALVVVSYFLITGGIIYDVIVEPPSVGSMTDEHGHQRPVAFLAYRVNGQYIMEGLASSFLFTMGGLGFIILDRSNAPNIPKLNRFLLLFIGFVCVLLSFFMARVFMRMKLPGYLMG
UniProt Q99571: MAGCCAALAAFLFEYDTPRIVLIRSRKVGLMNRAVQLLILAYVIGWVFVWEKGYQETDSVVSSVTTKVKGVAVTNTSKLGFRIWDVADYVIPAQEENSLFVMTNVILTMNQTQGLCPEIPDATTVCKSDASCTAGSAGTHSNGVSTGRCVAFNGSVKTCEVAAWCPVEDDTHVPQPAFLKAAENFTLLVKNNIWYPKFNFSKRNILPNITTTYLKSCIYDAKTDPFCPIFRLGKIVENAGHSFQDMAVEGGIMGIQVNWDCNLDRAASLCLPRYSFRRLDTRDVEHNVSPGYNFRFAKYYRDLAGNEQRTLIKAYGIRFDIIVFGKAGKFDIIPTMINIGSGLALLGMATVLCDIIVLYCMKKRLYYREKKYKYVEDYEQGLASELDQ
UniProt O75147: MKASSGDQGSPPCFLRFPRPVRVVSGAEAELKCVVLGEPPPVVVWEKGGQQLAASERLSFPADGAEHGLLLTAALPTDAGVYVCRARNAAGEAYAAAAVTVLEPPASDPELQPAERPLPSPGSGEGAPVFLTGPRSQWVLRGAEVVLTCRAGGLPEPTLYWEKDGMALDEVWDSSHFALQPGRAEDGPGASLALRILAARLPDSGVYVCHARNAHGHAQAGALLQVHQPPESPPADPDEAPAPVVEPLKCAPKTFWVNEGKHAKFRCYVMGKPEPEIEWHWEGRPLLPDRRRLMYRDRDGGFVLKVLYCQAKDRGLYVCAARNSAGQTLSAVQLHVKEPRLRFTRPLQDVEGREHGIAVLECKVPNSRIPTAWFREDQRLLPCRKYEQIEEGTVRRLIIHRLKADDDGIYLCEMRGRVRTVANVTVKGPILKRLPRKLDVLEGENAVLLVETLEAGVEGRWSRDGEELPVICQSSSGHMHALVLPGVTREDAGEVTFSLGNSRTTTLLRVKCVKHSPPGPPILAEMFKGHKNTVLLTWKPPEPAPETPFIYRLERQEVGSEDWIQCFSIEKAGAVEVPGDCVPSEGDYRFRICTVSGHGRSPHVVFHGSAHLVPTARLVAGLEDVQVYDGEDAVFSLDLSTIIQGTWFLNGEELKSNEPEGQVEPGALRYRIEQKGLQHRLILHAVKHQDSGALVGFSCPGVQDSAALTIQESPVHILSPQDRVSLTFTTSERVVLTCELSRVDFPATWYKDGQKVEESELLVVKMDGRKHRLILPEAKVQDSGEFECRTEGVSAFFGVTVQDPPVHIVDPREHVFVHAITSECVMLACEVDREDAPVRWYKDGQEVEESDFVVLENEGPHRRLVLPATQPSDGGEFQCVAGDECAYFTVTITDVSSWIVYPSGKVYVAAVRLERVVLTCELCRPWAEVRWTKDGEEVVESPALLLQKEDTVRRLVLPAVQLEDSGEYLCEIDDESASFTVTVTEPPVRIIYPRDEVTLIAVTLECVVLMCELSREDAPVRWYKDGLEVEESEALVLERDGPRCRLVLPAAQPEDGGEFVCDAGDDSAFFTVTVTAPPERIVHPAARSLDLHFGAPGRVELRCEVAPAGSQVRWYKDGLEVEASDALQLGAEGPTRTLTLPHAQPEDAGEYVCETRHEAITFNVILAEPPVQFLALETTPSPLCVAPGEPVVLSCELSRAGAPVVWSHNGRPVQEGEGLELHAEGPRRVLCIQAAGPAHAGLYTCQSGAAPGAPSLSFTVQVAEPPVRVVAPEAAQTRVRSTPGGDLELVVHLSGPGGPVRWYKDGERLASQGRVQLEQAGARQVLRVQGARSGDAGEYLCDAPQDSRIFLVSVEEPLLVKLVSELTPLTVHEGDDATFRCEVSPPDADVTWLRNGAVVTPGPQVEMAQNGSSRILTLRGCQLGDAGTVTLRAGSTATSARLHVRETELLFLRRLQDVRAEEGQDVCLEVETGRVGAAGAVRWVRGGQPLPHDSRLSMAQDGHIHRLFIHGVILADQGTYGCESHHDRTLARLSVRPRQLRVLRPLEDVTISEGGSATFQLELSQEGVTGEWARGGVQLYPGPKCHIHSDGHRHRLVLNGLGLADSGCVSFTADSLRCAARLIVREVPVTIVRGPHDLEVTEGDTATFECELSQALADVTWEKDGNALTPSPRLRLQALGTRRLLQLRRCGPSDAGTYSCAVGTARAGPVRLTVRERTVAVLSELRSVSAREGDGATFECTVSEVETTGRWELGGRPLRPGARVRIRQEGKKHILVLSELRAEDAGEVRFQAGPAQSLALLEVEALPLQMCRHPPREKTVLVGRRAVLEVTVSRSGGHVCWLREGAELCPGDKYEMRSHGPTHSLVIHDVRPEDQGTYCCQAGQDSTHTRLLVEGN
UniProt P11940, whole entry, looked up: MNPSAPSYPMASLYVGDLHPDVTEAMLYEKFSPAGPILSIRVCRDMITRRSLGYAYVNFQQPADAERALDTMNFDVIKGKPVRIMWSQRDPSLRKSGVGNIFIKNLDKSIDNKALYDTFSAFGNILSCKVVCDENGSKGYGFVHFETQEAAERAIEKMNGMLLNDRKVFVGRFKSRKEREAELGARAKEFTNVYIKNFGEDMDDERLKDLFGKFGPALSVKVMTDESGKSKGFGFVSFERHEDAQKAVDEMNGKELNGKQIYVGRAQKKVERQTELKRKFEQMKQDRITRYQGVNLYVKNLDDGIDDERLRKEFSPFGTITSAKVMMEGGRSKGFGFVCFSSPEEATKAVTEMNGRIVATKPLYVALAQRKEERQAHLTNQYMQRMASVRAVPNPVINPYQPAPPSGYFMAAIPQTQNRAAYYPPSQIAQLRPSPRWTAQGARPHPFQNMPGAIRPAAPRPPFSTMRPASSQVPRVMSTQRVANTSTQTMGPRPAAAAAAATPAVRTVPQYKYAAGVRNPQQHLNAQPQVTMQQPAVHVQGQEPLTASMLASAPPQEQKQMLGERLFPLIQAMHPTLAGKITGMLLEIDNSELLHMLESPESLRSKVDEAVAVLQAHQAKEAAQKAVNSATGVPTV
UniProt Q13153, whole entry, looked up: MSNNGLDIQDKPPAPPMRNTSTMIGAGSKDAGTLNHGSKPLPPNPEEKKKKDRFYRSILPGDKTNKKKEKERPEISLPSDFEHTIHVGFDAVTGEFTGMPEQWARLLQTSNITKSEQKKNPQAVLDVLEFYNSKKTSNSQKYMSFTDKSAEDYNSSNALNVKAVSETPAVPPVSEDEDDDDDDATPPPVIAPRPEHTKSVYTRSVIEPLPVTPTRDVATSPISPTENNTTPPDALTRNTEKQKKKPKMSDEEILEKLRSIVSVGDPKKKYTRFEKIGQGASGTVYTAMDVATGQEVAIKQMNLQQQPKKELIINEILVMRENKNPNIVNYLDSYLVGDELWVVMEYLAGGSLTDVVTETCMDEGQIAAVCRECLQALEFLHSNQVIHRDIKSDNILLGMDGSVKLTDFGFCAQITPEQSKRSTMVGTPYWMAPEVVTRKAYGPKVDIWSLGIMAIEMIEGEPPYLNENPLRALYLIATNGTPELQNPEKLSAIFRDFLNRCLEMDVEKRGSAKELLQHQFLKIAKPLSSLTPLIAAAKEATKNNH
UniProt Q9NX40: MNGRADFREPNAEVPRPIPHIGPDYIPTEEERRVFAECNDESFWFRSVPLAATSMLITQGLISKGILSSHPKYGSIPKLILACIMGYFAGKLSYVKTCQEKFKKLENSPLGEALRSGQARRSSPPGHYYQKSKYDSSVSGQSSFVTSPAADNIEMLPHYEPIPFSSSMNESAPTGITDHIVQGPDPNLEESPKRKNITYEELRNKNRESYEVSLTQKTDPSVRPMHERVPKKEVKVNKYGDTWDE
UniProt Q504Q3: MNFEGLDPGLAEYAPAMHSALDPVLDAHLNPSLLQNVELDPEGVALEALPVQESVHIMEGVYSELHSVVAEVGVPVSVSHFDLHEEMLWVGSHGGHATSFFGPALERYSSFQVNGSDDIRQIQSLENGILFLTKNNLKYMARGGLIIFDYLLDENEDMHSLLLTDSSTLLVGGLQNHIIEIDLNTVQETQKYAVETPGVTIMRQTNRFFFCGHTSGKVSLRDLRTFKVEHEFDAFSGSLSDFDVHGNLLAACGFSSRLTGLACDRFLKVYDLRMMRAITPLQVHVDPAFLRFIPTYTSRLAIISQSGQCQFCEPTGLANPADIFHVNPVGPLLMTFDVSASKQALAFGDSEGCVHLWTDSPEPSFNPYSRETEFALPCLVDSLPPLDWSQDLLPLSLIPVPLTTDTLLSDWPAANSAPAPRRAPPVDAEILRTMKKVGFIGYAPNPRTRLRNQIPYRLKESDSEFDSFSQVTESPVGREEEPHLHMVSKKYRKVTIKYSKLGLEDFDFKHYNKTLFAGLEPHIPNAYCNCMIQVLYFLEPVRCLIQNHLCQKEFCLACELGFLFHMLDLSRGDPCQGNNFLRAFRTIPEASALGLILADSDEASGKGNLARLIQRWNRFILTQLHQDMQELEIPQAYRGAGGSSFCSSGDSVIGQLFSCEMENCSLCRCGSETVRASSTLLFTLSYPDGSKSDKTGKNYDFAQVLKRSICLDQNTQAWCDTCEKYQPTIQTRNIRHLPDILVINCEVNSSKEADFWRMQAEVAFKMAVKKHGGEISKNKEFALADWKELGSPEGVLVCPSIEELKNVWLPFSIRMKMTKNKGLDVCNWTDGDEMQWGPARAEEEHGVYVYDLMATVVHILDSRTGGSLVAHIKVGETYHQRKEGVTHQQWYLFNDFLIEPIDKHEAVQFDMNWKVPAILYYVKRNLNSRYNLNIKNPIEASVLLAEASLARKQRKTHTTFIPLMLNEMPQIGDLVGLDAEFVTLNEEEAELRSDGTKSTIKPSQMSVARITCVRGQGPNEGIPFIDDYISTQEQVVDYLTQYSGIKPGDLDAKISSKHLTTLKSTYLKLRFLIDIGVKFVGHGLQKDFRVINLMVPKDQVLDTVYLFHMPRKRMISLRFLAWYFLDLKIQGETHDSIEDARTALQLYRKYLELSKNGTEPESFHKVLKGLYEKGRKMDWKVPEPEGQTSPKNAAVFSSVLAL

PARL (UniProt Q9H300) was tested. Which log2 fold change did it give?
The log2 fold change was inactive: 0.024.

Which log2 fold change does the source give for ORC5 (UniProt O43913) here?
The log2 fold change was active: -0.377.

For PAGE1 (UniProt O75459), which log2 fold change is on record?
Its log2 fold change is inactive: 0.094.

Which log2 fold change does the source give for PAIP2 (UniProt Q9BPZ3) here?
The log2 fold change was inactive: 0.054.

With OSBPL8 (UniProt Q9BZF1) as the target, how does the log2 fold change read?
The log2 fold change was inactive: -0.108.

For OGFOD3 (UniProt Q6PK18), which log2 fold change is on record?
The log2 fold change was inactive: -0.083.

Which log2 fold change does the source give for NXF1 (UniProt Q9UBU9) here?
The log2 fold change was inactive: -0.09.

ORC2 (UniProt Q13416) was tested. Which log2 fold change did it give?
Its log2 fold change is active: -0.285.

ORC4 (UniProt O43929) was tested. Which log2 fold change did it give?
Its log2 fold change is inactive: -0.178.

For OSTF1 (UniProt Q92882), which log2 fold change is on record?
The log2 fold change was inactive: -0.013.

With NUS1 (UniProt Q96E22) as the target, how does the log2 fold change read?
The log2 fold change was inactive: -0.118.

With PAGE5 (UniProt Q96GU1) as the target, how does the log2 fold change read?
Its log2 fold change is inactive: 0.239.

PANK1 (UniProt Q8TE04) was tested. Which log2 fold change did it give?
The log2 fold change was inactive: -0.084.

With OSTC isoform 2 (UniProt Q9NRP0) as the target, how does the log2 fold change read?
The log2 fold change was inactive: -0.045.

How did the log2 fold change turn out when OMA1 (UniProt Q96E52) was run?
Its log2 fold change is inactive: 0.122.

OXA1L (UniProt Q15070) was tested. Which log2 fold change did it give?
The log2 fold change was inactive: 0.06.

How did the log2 fold change turn out when P2RX4 isoform 2 (UniProt Q99571) was run?
Its log2 fold change is inactive: 0.083.

With OTULIN (UniProt Q96BN8) as the target, how does the log2 fold change read?
Its log2 fold change is inactive: -0.067.

Which log2 fold change does the source give for PAPOLA (UniProt P51003) here?
Its log2 fold change is inactive: -0.005.

For OBSL1 (UniProt O75147), which log2 fold change is on record?
The log2 fold change was inactive: -0.186.

Which log2 fold change does the source give for PABPC1 (UniProt P11940) here?
Its log2 fold change is inactive: 0.037.

P4HA1 (UniProt P13674) was tested. Which log2 fold change did it give?
Its log2 fold change is inactive: 0.032.

Which log2 fold change does the source give for NUP210 (UniProt Q8TEM1) here?
Its log2 fold change is active: 0.276.

PAK1 (UniProt Q13153) was tested. Which log2 fold change did it give?
Its log2 fold change is inactive: 0.13.

How did the log2 fold change turn out when PALMD (UniProt Q9NP74) was run?
The log2 fold change was inactive: 0.193.

With OBI1 (UniProt Q5W0B1) as the target, how does the log2 fold change read?
Its log2 fold change is inactive: -0.206.

How did the log2 fold change turn out when OCIAD1 (UniProt Q9NX40) was run?
The log2 fold change was inactive: 0.139.

With PAN2 isoform 2 (UniProt Q504Q3) as the target, how does the log2 fold change read?
The log2 fold change was inactive: -0.097.

How did the log2 fold change turn out when PAIP1 (UniProt Q9H074) was run?
The log2 fold change was inactive: 0.254.

How did the log2 fold change turn out when OTUD5 isoform 5 (UniProt Q96G74) was run?
The log2 fold change was inactive: 0.03.

Which log2 fold change does the source give for PAK4 (UniProt O96013) here?
Its log2 fold change is inactive: -0.458.

For PAPOLG (UniProt Q9BWT3), which log2 fold change is on record?
Its log2 fold change is active: -0.369.

OXNAD1 (UniProt Q96HP4) was tested. Which log2 fold change did it give?
The log2 fold change was inactive: -0.279.

— the supplement of paper PMC10849652
